The test deals with Plasmodium falciparum 3D7. Kind of test: Antimalarial assay. Format: cell-based. Particulars: 3D7, 72 h, read-out: Antimalarial IC50.

The structures appear in SMILES notation.

What is called IC50 is the concentration needed to halve the response being measured. As for `CCN(CC)CCCC(C)Nc1ccnc2cc(Cl)ccc12` (stereo not shown) [Chloroquine, reference compound], the IC50 came to 0.28 ± 0.03 µM.

Values taken from paper PMC12559995 (RSC Advances, 2025).
